The assay deals with Ara h 1 (purified from peanut) (Arachis hypogaea) (UniProt P43238). Nature of the assay: fluorescence polarization; DSP cross-linking gives a complex of about 180 kd (trimer).

These are yes or no findings as the source states them, for the method shown. Some results given as binding are weak or reduced against the parent protein; the word gives no strength.

B1: Ara h 1 (purified from peanut) (protein)
chain: KSSPYQKKTENPCAQRCLQSCQQEPDDLKQKACESRCTKLEYDPRCVYDPRGHTGTTNQRSPPGERTRGRQPGDYDDDRRQPRREEGGRWGPAGPREREREEDWRQPREDWRRPSHQQPRKIRPEGREGEQEWGTPGSHVREETSRNNPFYFPSRRFSTRYGNQNGRIRVLQRFDQRSRQFQNLQNHRIVQIEAKPNTLVLPKHADADNILVIQQGQATVTVANGNNRKSFNLDEGHALRIPSGFISYILNRHDNQNLRVAKISMPVNTPGQFEDFFPASSRDQSSYLQGFSRNTLEAAFNAEFNEIRRVLLEENAGGEQEERGQRRWSTRSSENNEGVIVKVSKEHVEELTKHAKSVSKKGSEEEGDITNPINLREGEPDLSNNFGKLFEVKPDKKNPQLQDLDMMLTCVEIKEGALMLPHFNSKAMVIVVVNKGTGNLELVAVRKEQQQRGRREEEEDEDEEEEGSNREVRRYTARLKEGDVFIMPAAHPVAINASSELHLLGFGINAENNHRIFLAGDKDNVIDQIEKQAKDLAFPGSGEQVEKLIKNQKESHFVSARPQSQSQSPSSPEKESPEKEDQEEENQGGKGPLLSILKAFN
modifications: glycoprotein (PAS positive); fluorescein-labelled tracer in Example 6
As for B1, the binding entry is “binds”.

The values are drawn from patent publication US20120283421A1.
